Values from PubChem BioAssay AID1259254 (NCATS, 2017)
The whole screen tested about 59,000 reagents; shown is a part drawn at random. Over the whole deposit, about 1,550 (2.6%) were called active. 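G2 share is only a proxy for re-replication; each gene was hit by three separate siRNAs, and active genes were retested.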 Entries without a mark were called inactive. Reagents against one gene are numbered here. Further read-outs or replicates are left out here. Not stated in the record: the amount of reagent.

Purpose: 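Gene knock-downs that lead to re-replication, shown by excess G2 DNA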 (primary screen)
Cell system: human HCT116 colorectal cancer cells
Reagents: single siRNA against human genes
Timing: 3 days
Detection: 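Nuclei stained with Hoechst and imaged; cell-cycle phase assigned by DNA content; G2 share scaled per plate, non-targeting siRNA 0%, GMNN siRNA 100%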
Reading the numbers: G2 robust z-score: higher = more G2 cells, more excess DNA replication
Active means: 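Active siRNAs have a G2 robust z of 5 or more median absolute deviations over the median, which in these data means about 38% or higher of GMNN control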

G2 robust z-score, by gene and reagent
C1orf50: #1 -0.82; #2 -0.376; #3 0.656
H2BC18: #1 0.148; #2 0.844; #3 1.48
RAB20: #1 -0.999; #2 -0.165; #3 1.63
IL36B: #1 -0.729; #2 0.902; #3 -0.328
VCPKMT: #1 1.78; #2 0.296; #3 -0.713
WDR5B: #1 3.78; #2 0.104; #3 0.22
SH3KBP1: #1 2.01; #2 2.4; #3 -0.464
GPR161: #1 2.01; #2 -1.01; #3 -1.49
DNPH1: #1 -0.441; #2 -0.928; #3 1.24
ZNF219: #1 -0.168; #2 1.72; #3 -0.711

A run of entries from the list above, for reference:
G2 robust z-score, by gene and reagent
DNPH1: #3 1.24
ZNF219: #1 -0.168; #2 1.72; #3 -0.711
